Experiment [1] deals with T1, Flag-Rap2A (UniProt P10114).
T1 sequence: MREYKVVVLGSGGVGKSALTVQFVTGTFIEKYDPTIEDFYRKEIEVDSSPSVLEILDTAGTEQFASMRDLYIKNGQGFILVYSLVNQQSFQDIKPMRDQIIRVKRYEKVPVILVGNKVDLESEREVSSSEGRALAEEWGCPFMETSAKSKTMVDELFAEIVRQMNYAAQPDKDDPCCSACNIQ
Nature of the experiment: co-IP; anti-Flag immunoprecipitation (FlagIPT-1 kit, Sigma-Aldrich) from cleared RIPA lysates of HEK-293 cells (stable Flag-PAT1 line, or transiently expressing Flag-RagD or Flag-Rap2A), steady state conditions; Western blot of the precipitates. On the technique in general: In western blotting, separated proteins are transferred to a membrane and probed.

Protein sequences, listed by entry. Tags and fused reporters are not part of them.
UniProt Q7Z2H8: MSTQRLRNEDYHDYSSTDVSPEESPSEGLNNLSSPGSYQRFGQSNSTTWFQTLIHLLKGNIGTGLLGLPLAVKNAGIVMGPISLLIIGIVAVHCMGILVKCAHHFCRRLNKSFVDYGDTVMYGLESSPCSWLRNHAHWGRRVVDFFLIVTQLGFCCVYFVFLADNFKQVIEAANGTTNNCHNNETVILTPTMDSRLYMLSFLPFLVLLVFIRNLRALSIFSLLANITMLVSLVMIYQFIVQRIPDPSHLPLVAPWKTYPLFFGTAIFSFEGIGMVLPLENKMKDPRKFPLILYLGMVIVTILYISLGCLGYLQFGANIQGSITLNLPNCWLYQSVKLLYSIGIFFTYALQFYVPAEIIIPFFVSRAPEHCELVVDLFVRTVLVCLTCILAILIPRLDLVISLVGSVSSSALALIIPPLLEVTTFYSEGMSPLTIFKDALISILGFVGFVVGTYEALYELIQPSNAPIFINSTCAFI
UniProt Q9HB90: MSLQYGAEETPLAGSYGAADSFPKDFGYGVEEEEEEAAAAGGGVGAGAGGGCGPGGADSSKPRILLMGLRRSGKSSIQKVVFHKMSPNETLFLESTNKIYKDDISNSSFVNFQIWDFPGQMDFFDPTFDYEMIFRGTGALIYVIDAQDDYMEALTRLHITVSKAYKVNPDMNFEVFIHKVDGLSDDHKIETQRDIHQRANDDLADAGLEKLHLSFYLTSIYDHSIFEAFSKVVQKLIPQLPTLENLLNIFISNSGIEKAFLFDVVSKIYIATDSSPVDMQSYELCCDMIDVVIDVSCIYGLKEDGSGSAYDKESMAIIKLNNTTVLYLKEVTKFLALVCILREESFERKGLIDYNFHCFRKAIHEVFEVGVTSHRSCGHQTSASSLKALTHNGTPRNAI

Experiment [2] addresses Flag-tagged Proton-assisted Amino acid Transporter 1 (PAT1)/SLC36A1 (human) (UniProt Q7Z2H8). The description is as above.

Results are given in words; binding and its absence hold for the method and conditions named. Binding seen in cells or lysates may run through a third protein. Some binding calls cover weakened binding; strength is not graded here. For some assays here: Tags and fused reporters may be left off the sequences shown.

Consider “Proton-assisted Amino acid Transporter 1 (PAT1)/SLC36A1 (from UniProt Q7Z2H8 1-476)”, for which, in experiment [1], the binding entry is given as “no binding”.

With “RagC (from UniProt Q9HB90 1-399) (other; other documents disagree on this pair)”, the binding result in experiment [2] is recorded as “binds”.

The values are drawn from publication PMC3344915.
